# This is one part of the list. The main result of the screen is listed elsewhere. These columns were measured beside it and carry no call. Most of these compounds were active or inconclusive in the main read-out, so they are no random draw. The note in brackets gives the kind of curve behind each potency; many fits are weak.
# Assay: qHTS Assay for Lipid Storage Modulators in Drosophila S3 Cells;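 on cell number change: cells counted by Cell Tracker Red CMTPX staining in the red channel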
# Settings: BODIPY lipid droplet fluorescence, 18-24 h; for cell number change: measured here: cell count max response, cells fed with added oleic acid
# Outline: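 Drosophila S3 cells loaded with oleic acid (400 uM, as added) and compounds at several concentrations; lipid droplets imaged by 488-nm laser-scanning cytometry, 500–530 nm intensity and object ratio to cell channel. Percent activity normalized to 20 uM Triacsin C.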
# [1] = measured here: lipid fluorescence (Fed channel) AC50, cells fed with added oleic acid
# [2] = measured here: cell number channel AC50, cells fed with added oleic acid
Compound,cell number change [%],AC50 [1],AC50 [2]
COc1cccc2c1O/C(=N\O)C(C(=O)Nc1cccc(C)c1C)C2 (centres undefined),4.6,"7.31 µM [falling, single point]",–
CC(C)C(=O)N1CCC(c2nc(-c3ccc(S(=O)(=O)N4CCCC4)cc3)no2)CC1,7.91,"29.1 µM [falling, single point]",–
COc1ccc(-c2ocnc2C(=O)Nc2ccccc2N2CCCCC2)cc1,-31.4,–,"0.13 µM [falling, full curve, poor fit]"
O=C(O)CNC(=O)c1ccccc1Br,–,–,"4.61 µM [falling, single point]"
CCOC(=O)N1CCC(NC(=O)c2ccc(CS(=O)(=O)c3ccc(OC)cc3)o2)CC1,–,"9.2 µM [rising, single point]","2.31 µM [rising, single point]"
CCOC(=O)C1C(=O)NC(c2ccccc2)=NC1c1cccc(Br)c1 (centres undefined),-11.6,–,"0.103 µM [rising, full curve, poor fit]"
CC(C)c1ccc(-c2nc3c([nH]2)c(=O)n(C)c(=O)n3C)cc1,-9.33,"29.1 µM [falling, single point]",–
Cc1ccc(NC(=O)C(Cc2ccccc2)NC(=O)c2ccco2)cc1 (centres undefined),-0.4,"1.46 µM [falling, full curve, poor fit]",–
COCCC(=O)N1CCC(Oc2ccc(C(=O)NC(C)CCn3cccn3)cc2)CC1 (centres undefined),12.4,"0.651 µM [rising, single point]",–
COc1cc2c(cc1OC)-c1cc(N3CCCc4ccccc43)nc(=O)n1CC2,13.1,"0.116 µM [rising, full curve]",–
Cc1nc(NS(=O)(=O)c2ccccc2)sc1NC(=O)Nc1ccccc1,-7.75,"0.291 µM [rising, partial curve, poor fit]",–
CC(=O)Nc1sc2c(c1C(c1cccc(Cl)c1)N1CCN(CCO)CC1)CCCC2 (centres undefined),54.1,–,"29.1 µM [rising, single point]"
CN(C)S(=O)(=O)Oc1ccsc1C(=O)Nc1ccc(C(F)(F)F)cc1,12.3,"20.6 µM [rising, partial curve]",–
COc1ccc(CC(NC(C)=O)C(=O)NC2CCN(S(=O)(=O)c3cccc4ccccc34)CC2)cc1OC (centres undefined),–,–,"1.84 µM [rising, partial curve]"
CCOC(=O)C1=C(c2ccccc2)NC(=O)NC1c1cc(OC)c(O)c([N+](=O)[O-])c1 (centres undefined),20.1,–,–
CCN(CC)S(=O)(=O)c1ccc(Cl)c(C(=O)NCC2CCCO2)c1 (centres undefined),1.5,"0.0231 µM [falling, full curve, poor fit]",–
CCCc1nc(SCC(N)=O)[nH]c(=O)c1CC,-10.8,"2.59 µM [falling, full curve, poor fit]",–
COc1ccc(CC(=O)NCCC(C)C)cc1S(=O)(=O)N1CCOCC1,–,"0.58 µM [rising, full curve, poor fit]",–
Cc1noc(C)c1S(=O)(=O)Nc1cccc(CO)c1,33.5,"29.1 µM [rising, single point]","29.1 µM [rising, single point]"
O=c1oc2c(CN3CCCCC3)c(O)ccc2cc1-c1nc2ccccc2[nH]1,19.6,"29.1 µM [rising, single point]",–

# Copied from the list.
# For cell number change [%], CN(C)S(=O)(=O)Oc1ccsc1C(=O)Nc1ccc(C(F)(F)F)cc1 has 12.3
# For AC50 [1], O=c1oc2c(CN3CCCCC3)c(O)ccc2cc1-c1nc2ccccc2[nH]1 has 29.1 µM [rising, single point]

# Remaining list, next part:

Compound,cell number change [%],AC50 [1],AC50 [2]
CC(C)OC(=O)c1c(NS(=O)(=O)c2ccccc2)sc2c1CCCC2,25.9,"14.6 µM [rising, partial curve, poor fit]",–
Cn1nnc2cc(C(=O)N3CCC(c4ccccc4)C3)ccc21 (centres undefined),-18.7,"5.17 µM [falling, partial curve]",–
CC[C@H](C)[C@H](NC(N)=O)C(=O)OCC(=O)NCc1ccc(Cl)cc1,-69.4,"29.1 µM [falling, single point]","29.1 µM [falling, single point]"
N#Cc1c(Nc2ccc(F)cc2)sc(C(=O)c2ccccc2)c1N,20.2,–,–
Cc1ccc(C(NC(=O)CN2C(=O)NC3(CCCC3)C2=O)c2ccccc2)cc1 (centres undefined),-5.7,"29.1 µM [falling, single point]",–
Cc1nc2cc(N3CCOCC3)c(NC(=O)C3CC3)cc2c(=O)n1Cc1ccccc1,78.5,–,"7.31 µM [rising, partial curve]"
CCOc1ccc(CCNC(=O)Cn2ccc3cc(S(=O)(=O)N4CCCC4)ccc32)cc1,-2.67,"4.11 µM [falling, single point]",–
Cc1cc(C)c(S(=O)(=O)/N=C2\C=C(Nc3ccc(C(=O)O)cc3)C(=O)c3ccccc32)c(C)c1,–,"0.82 µM [falling, full curve]",–
COc1ccc(-c2nnn(CC(=O)N(CC(=O)NC3CCCC3)c3cccc(C)c3)n2)cc1OC,16.4,"13 µM [rising, partial curve]",–
COc1ccc(-n2c(SCC(=O)Nc3nccs3)nc3c(c2=O)SC(C)C3)cc1 (centres undefined),0.94,–,–
CCN(CC)CCN1C(=O)C(=O)/C(=C(/O)c2c(C)[nH]c(C(=O)OC)c2C)C1c1cccc(OC)c1 (centres undefined),-22.4,–,–
COc1ccc(CNC(=O)Cc2ccc(-c3ccccc3)cc2)cc1OC,16.7,"6.51 µM [rising, single point]",–
COc1ccc(CCNC(=O)C2CCN(C(=O)c3ccc(C(C)(C)C)cc3)CC2)cc1OC,4.56,"29.1 µM [falling, single point]",–
O=C(c1cccs1)N1CCC(c2nc3c(nnn3Cc3ccccc3Cl)c(=O)[nH]2)CC1,-9.21,"5.62 µM [falling, single point]",–
CCCN(CC(=O)Nc1ccc(F)c(F)c1F)C(=O)Cc1ccc(S(=O)(=O)N2CCOCC2)s1,30.1,"0.00461 µM [rising, full curve, poor fit]","0.00517 µM [rising, full curve, poor fit]"
CCCn1c(SCC(=O)Nc2nc3c(s2)CCCC3)nc2c1c(=O)n(C)c(=O)n2C,35.3,"0.411 µM [rising, partial curve, poor fit]","0.517 µM [rising, full curve]"
CC(=O)Nc1ccc(S(=O)(=O)Nc2ccccc2C(=O)N2CCCCCC2)cc1,6.76,–,–
CCOc1ccc(C(C(=O)NCC2CCCO2)N(Cc2ccccc2)C(=O)c2snc(C(N)=O)c2N)cc1 (centres undefined),-17.1,–,–
CCOC(=O)c1nnn(-c2nonc2N)c1CN(C)C1CCCCC1,-7.73,"16.4 µM [rising, single point]",–
COc1cc(C(=O)OCC(=O)Nc2ccccc2C(=O)NC2CC2)c([N+](=O)[O-])cc1OC,23.4,"0.146 µM [falling, full curve]",–

Compound,cell number change [%],AC50 [1],AC50 [2]
Cc1nc2c(sc(=S)n2Cc2ccco2)c(=O)n1CC(=O)Nc1ccccc1,26.6,–,–
Cn1c(OCc2ccco2)nc2c1c(=O)n(Cc1ccc(Cl)c(Cl)c1)c(=O)n2C,–,–,"6.51 µM [rising, single point]"
COc1cc(/C=N/NC(N)=O)cc(Br)c1OCc1ccc(C)cc1,21.6,"0.116 µM [rising, full curve, poor fit]","2.91 µM [rising, single point]"
O=[N+]([O-])c1ccc(CNc2cccc(Cl)c2)s1,-6.76,"29.1 µM [falling, single point]",–
COc1ccc(-n2c(SCC(=O)N3CCOCC3)nc(O)cc2=O)cc1,3.18,–,–
CCN(C(=O)CSc1nc(C)nc2sc(C)c(C)c12)C1CCS(=O)(=O)C1 (centres undefined),-8.25,–,–
CC(C)N(C(=O)COC(=O)c1ccc(O)cc1)C(C)C,-58.9,"25.9 µM [falling, partial curve, poor fit]","32.6 µM [falling, partial curve]"
Cc1ccc(NS(=O)(=O)c2ccc(-c3coc(C)n3)cc2)c(C)c1,-12.8,"0.184 µM [rising, full curve, poor fit]",–
CCCNCc1cc(Br)ccc1OCC(=O)NCCc1ccccc1,-10.5,"0.731 µM [falling, partial curve, poor fit]",–
CCC(=O)N1CCCc2cc(S(=O)(=O)N3CCN(c4ccccc4F)CC3)ccc21,-7.55,–,–
COc1ccc(CN2CCN(Cc3ccon3)CC2CCO)c(C)c1C (centres undefined),6.32,"0.731 µM [falling, full curve, poor fit]",–
COc1cc(NC(=O)C2CCCN(S(=O)(=O)c3cnc[nH]3)C2)cc(OC)c1 (centres undefined),10.8,"0.13 µM [rising, full curve, poor fit]",–
C/C(=N\NC(=O)c1ccco1)c1ccc(C(=O)O)s1,-15.6,"0.116 µM [rising, full curve, poor fit]",–
O=C(O)c1ccccc1C(=O)O,22.6,"0.0517 µM [rising, partial curve, poor fit]",–
COc1ccc2[nH]c(C)c(C(=O)CN(C)CC3OCCO3)c2c1,15.5,"1.46 µM [rising, partial curve]","0.326 µM [rising, partial curve, poor fit]"
C/C(=N/NC(=O)CN1CCN(S(=O)(=O)c2ccc(C)cc2)CC1)c1ccco1,39.7,"32.6 µM [rising, single point]","29.1 µM [rising, single point]"
Cc1nc(-c2nnc(SCC(=O)Nc3ccc(C(F)(F)F)cc3)n2C)cs1,24.3,–,–
O=C(NNC(=O)c1cc2ccccc2oc1=O)c1ccccc1[N+](=O)[O-],27.8,"0.708 µM [rising, full curve, poor fit]",–
COc1ccc(CC(=O)OCC(=O)Nc2c(C)n(C)n(-c3ccccc3)c2=O)cc1,5.3,–,–
